Data as given in PMC11322666.
These are yes or no findings as the source states them, for the method shown. Binding seen in cells or lysates may run through a third protein. Some results given as binding are weak or reduced against the parent protein; the word gives no strength. For some assays here: Where a sequence is shown, tags or fusion partners need not be part of it. Blank lines part the entries; values can stand above or below the binder they belong to.

Chains of the proteins cited; added tags and fusions are not shown. Lines headed by an entry give the natural chain unless they say otherwise; changes in a name come on top. A line that says so, or that is headed by a name, gives the form on record, which may keep a tag or linker. Residues count along the entry.
UniProt O75460: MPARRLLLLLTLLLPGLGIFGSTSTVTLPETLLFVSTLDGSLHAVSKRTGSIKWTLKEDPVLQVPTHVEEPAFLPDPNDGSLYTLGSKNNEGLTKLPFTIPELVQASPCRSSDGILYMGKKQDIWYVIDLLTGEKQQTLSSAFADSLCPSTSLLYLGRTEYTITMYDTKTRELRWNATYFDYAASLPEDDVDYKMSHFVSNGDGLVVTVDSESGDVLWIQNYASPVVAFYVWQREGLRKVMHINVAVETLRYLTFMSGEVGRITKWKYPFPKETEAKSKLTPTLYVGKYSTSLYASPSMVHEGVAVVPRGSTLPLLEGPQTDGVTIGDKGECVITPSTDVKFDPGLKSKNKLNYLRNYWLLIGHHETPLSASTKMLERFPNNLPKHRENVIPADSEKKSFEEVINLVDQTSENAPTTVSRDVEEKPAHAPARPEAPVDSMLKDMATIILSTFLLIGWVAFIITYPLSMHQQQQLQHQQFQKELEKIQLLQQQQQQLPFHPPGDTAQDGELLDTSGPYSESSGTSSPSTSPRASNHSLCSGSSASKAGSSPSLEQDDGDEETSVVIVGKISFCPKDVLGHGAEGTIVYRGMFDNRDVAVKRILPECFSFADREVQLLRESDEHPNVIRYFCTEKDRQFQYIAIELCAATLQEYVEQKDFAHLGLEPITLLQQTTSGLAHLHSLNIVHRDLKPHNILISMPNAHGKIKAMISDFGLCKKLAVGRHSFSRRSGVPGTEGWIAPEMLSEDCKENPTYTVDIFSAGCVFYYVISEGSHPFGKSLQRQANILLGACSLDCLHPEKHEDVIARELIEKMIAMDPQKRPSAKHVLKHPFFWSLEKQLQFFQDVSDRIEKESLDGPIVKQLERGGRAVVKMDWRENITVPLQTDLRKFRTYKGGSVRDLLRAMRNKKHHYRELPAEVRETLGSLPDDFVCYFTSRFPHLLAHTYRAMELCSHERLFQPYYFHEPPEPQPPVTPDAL
IRE1α-Flag, wild type: residues 19-977 of O75460
IRE1α^K-Flag: residues 571-832 of O75460
IRE1α^D123P, Flag tagged (O75460, form named): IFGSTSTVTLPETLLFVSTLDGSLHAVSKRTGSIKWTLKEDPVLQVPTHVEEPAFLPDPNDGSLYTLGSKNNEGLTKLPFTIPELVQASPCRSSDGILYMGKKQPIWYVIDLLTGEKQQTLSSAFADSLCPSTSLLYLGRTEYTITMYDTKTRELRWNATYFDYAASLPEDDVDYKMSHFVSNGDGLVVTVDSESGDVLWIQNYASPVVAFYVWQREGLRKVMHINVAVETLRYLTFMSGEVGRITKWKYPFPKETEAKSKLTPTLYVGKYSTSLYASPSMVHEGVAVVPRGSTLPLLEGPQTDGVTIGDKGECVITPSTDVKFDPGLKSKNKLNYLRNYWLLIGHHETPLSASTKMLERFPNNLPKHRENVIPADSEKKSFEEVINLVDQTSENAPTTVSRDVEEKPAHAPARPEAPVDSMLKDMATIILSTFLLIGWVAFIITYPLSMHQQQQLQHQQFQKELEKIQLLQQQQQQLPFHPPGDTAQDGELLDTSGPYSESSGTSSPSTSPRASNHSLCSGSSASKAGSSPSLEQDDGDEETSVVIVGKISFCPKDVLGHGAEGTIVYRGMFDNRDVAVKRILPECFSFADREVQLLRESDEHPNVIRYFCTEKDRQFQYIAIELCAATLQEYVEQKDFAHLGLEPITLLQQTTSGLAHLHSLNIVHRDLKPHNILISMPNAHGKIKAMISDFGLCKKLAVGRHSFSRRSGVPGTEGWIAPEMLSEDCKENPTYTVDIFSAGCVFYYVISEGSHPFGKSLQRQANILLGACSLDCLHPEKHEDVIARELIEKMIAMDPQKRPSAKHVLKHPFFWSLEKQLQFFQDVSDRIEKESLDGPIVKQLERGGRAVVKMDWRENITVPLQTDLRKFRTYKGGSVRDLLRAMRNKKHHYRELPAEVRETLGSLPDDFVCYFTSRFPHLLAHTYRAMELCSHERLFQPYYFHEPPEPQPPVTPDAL
IRE1α^K599A, Flag tagged (O75460, form named): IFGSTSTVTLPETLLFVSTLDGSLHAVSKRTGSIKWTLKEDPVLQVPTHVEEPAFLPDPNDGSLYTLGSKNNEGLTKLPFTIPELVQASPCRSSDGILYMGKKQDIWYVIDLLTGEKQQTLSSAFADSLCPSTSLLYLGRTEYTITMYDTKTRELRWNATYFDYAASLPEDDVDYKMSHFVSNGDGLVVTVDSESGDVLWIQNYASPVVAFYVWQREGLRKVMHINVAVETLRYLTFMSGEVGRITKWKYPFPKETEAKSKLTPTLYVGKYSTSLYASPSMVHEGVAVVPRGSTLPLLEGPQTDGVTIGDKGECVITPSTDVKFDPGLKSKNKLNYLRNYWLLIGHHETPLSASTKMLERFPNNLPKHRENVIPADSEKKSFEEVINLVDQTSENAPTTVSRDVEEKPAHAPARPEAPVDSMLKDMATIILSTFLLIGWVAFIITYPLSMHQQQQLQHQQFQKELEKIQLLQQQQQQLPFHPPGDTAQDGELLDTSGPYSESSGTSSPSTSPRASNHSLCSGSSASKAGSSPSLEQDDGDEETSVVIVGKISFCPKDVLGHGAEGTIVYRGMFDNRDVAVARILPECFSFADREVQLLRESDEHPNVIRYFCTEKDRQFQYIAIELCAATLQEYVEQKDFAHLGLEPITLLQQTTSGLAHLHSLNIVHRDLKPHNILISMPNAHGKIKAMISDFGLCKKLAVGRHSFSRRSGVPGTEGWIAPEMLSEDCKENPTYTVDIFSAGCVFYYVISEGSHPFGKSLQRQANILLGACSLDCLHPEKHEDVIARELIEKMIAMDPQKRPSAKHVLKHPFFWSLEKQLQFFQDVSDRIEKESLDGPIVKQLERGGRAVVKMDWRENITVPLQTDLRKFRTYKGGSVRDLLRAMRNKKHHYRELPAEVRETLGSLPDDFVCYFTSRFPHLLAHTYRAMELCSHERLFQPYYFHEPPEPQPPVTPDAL
IRE1α^S724A-Vn173 (O75460, form named): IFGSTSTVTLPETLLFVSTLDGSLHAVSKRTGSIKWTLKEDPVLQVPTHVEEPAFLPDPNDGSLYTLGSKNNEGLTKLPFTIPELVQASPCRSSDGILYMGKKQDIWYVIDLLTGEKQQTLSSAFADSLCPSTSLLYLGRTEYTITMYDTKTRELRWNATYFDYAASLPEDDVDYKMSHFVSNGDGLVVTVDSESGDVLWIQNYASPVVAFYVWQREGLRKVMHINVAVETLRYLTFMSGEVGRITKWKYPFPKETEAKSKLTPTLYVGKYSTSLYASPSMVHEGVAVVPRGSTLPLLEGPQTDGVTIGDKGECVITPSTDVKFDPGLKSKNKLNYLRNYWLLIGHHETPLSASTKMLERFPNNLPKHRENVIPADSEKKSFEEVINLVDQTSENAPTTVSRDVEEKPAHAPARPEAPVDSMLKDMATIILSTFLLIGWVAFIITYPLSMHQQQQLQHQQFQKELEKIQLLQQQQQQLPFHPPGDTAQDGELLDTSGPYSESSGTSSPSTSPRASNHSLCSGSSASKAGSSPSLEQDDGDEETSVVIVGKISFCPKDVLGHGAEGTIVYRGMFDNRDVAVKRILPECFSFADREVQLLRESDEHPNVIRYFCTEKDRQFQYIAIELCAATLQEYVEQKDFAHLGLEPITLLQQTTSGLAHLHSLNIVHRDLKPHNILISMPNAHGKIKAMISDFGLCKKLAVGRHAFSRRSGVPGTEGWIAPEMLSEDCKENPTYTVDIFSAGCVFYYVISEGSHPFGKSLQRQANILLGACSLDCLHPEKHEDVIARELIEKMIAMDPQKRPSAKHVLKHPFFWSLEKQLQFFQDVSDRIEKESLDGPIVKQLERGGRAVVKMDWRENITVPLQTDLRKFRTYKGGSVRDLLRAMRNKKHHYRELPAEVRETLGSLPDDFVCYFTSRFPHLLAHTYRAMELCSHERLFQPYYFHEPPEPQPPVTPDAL

Columns and labels:
[1] = molecular target: IRE1α^D123P, Flag tagged (human) (UniProt O75460); assay: co-IP; lysates of transfected HEK293T or U2OS cells (24 h) in NETN buffer (20 mM Tris-HCl pH 8.0, 100 mM NaCl, 1 mM EDTA, 0.5% NP-40), IP with anti-Flag (M2) magnetic beads or the indicated antibodies, western blot; Fig. 3G two-way
[2] = molecular target: IRE1α^K-Flag (human) (UniProt O75460); assay: as above
[3] = molecular target: IRE1α^K599A, Flag tagged (human) (UniProt O75460); assay: as above
[4] = molecular target: IRE1α-Flag, wild type (human) (UniProt O75460); assay: as above
[5] = molecular target: inositol-requiring enzyme-1α (IRE1α), endogenous (human (endogenous in HEK293T and U2OS)) (UniProt O75460); assay: co-IP; endogenous proteins, lysates of HEK293T and U2OS cells, IP with the indicated antibodies (anti-IRE1α), IgG as negative control; also with RNase A pre-treatment of lysates, in shUPF1 and shUPF2 cells, after STF-083010 or Kira6 (10 or 50 μM, 6 h), BiP overexpression, siBiP, UPF3B …
[6] = molecular target: IRE1α^S724A-Vn173 (human) (UniProt O75460); assay: split reporter; BiFC with Venus fragments VN173 and VC155 in living U2OS cells, 24 h after transfection, confocal microscopy
[7] = molecular target: IRE1α-Vn173 (human) (UniProt O75460); assay: as above
[8] = molecular target: IRE1α-Flag, wild type (human) (UniProt O75460); assay: co-IP; UPF3B-Myc (increasing amounts; pCMV as 0 μg control), IRE1α-Flag and IRE1α-HA overexpressed in HEK293T cells, IP with anti-Flag antibodies

binding [1]: binds
binding [2]: binds
binding [3]: binds
binding [4]: binds
binding [5]: binds
B1: UPF3B, endogenous (protein, UniProt Q9BZI7 1-483)
chain: MKEEKEHRPKEKRVTLLTPAGATGSGGGTSGDSSKGEDKQDRNKEKKEALSKVVIRRLPPTLTKEQLQEHLQPMPEHDYFEFFSNDTSLYPHMYARAYINFKNQEDIILFRDRFDGYVFLDNKGQEYPAIVEFAPFQKAAKKKTKKRDTKVGTIDDDPEYRKFLESYATDNEKMTSTPETLLEEIEAKNRELIAKKTTPLLSFLKNKQRMREEKREERRRREIERKRQREEERRKWKEEEKRKRKDIEKLKKIDRIPERDKLKDEPKIKVHRFLLQAVNQKNLLKKPEKGDEKELDKREKAKKLDKENLSDERASGQSCTLPKRSDSELKDEKPKRPEDESGRDYREREREYERDQERILRERERLKRQEEERRRQKERYEKEKTFKRKEEEMKKEKDTLRDKGKKAESTESIGSSEKTEKKEEVVKRDRIRNKDRPAMQLYQPGARSRNRLCPPDDSTKSGDSAAERKQESGISHRKEGGEE

binding [6]: binds
binding [7]: binds
B2: UPF3B-Vc155 (protein, UniProt Q9BZI7 1-483)
chain: B1 chain

binding [8]: binds
B3: UPF3B-Myc (protein, UniProt Q9BZI7 1-483)
chain: B1 chain
